Data from patent US6534508B2, “Methods and compositions for treating infection using optically pure (S)-lomefloxacin” (priority 1991, dated 2003).
For part of these data: At least one compound was matched to its structure with a doubt left. Some results were stated once for a whole list of compounds, not compound by compound.

What was measured:
M. kansasii = experiment: Broth microdilution MIC, M. kansasii isolates; type: cell-based; details: 10 strains; 7 days incubation; 7H9 broth
M. tuberculosis = experiment: Broth microdilution MIC, M. tuberculosis isolates; type: cell-based; details: 12 strains; 14 days incubation; 7H9 broth
[1] = tested on: Gram-positive and Gram-negative pathogens; details: (S)-isomer vs racemate; cited from earlier work

Structure (SMILES) | Susceptibility, MIC90 (M. kansasii) | Susceptibility, MIC90 (M. tuberculosis) | bactericidal potency relative to the racemate [1]
CCn1cc(C(=O)O)c(=O)c2cc(F)c(N3CCNC(C)C3)c(F)c21 (racemic) [LM, 1-ethyl-6,8-difluoro-1,4-dihydro-7-(3-methyl-lpiperazinyl)-4-oxo-3-quinolinecarboxylic acid] | < 4.0 µg/mL | < 4.0 µg/mL | 
C[C@H]1COc2c(N3CCN(C)CC3)c(F)cc3c(=O)c(C(=O)O)cn1c23 [(S)-isomer of ofloxacin, ofloxacin] |  |  | twice as potent
